Source: article PMC12040169 (PLOS Biology, 2025)
The other results are listed elsewhere or left out.

Test system: T1, CTL2-GFP (C. trachomatis L2/434/Bu, GFP-expressing)
T1 construct: L2/434/Bu, GFP-expressing
Set-up: species or system HeLa; Intracellular C. trachomatis growth in HeLa cells, bulk GFP fluorescence relative to DMSO
Conditions: bulk GFP, single well; 28.5 h, 10 µM; inhibitor

Structure (SMILES) | % of control remaining [%]
Cn1ccnc1C(NC(=O)Cc1ccc(O)cc1)c1ccccc1 (stereo not shown) [CBK283723] | 134.305
CCc1cc(CNS(=O)(=O)c2cc(C)ccc2F)on1 [CBK283064] | 80.3544
C/C(=N\NC(=O)Cc1ccc([N+](=O)[O-])cc1[N+](=O)[O-])c1ccccc1O [CBK261175] | 103.759
COc1cccc(C2(NC(=O)c3c(C)noc3C)CCCC2)c1 [CBK283659] | 105.136
O=C(O)CSc1nc2ccc(NC(=O)c3ccccc3Cl)cc2s1 [CBK299791] | 125.046
O=C(O)Cc1ccc(NC(=O)c2cccnc2C(=O)O)cc1 [CBK267397] | 102.503
CCNC(=S)N[C@H]1CC[C@@]2(Cc3ccc(OC)cc3)CCN(C)[C@H]2C1 [CBK004257] | 105.583
O=C(CCn1c(C(F)(F)F)cc2cccnc21)N1CCOCC1 [CBK284869] | 131.976
CCC(C)(C)c1ccc(S(=O)(=O)N2CCN(Cc3ccc(C(C)=O)cc3)CC2)cc1 [CBK062826] | 72.4401
O=C1CCCN1CCOc1nccnc1-c1ccsc1 [CBK106759] | 123.882
CCS(=O)(=O)N1CCCCCC1c1nn(C)cc1Cl (stereo not shown) [CBK284672] | 119.589
Cc1cc(NS(=O)(=O)c2ccc(Oc3ccc(-c4ccccc4)cc3)nc2)no1 [CBK295343] | 113.188
CC(=O)Nc1ccc(-c2ccc(C(=O)NCc3ccc(S(C)(=O)=O)cc3)cn2)cc1 [CBK158860] | 102.004
Cc1cc(C)nc(N(C#N)CC(=O)N2c3ccccc3CCc3ccccc32)n1 [CBK266509] | 108.126
COCc1nc(C)c(C(=O)NC2CCCN(c3ccn(C)n3)C2=O)s1 (stereo not shown) [CBK306497] | 112.917
O=C(CCCN1C(=O)c2cccc3cccc(c23)C1=O)Nc1cccnc1 [CBK262560] | 100
COc1ccccc1N1CCN(C(=O)Nc2ccc(Cl)cc2)CC1 [CBK155597] | 121.362
COc1ccc(-c2nn(-c3ccccc3)cc2/C=C2/SC(=S)N(Cc3ccccc3)C2=O)c(C)c1 [CBK265107] | 122.497
CC(C)C(NC(=O)N1c2ccccc2NC(=O)C1C(C)C)C(=O)O (stereo not shown) [CBK286670] | 92.405
O=C(NCc1cccnc1)c1ccccc1NS(=O)(=O)c1ccc(F)cc1 [CBK269754] | 149.26

Exported in markdown: 2 of the compounds above.

| Structure (SMILES) | % of control remaining [%] |
| --- | --- |
| CCNC(=S)N[C@H]1CC[C@@]2(Cc3ccc(OC)cc3)CCN(C)[C@H]2C1 [CBK004257] | 105.583 |
| O=C(CCn1c(C(F)(F)F)cc2cccnc21)N1CCOCC1 [CBK284869] | 131.976 |

More entries follow.

Structure (SMILES) | % of control remaining [%]
CCOc1cc(/C=N/Nc2nnc(C)n2N)ccc1O [CBK027460] | 7.066
O=C1NCCNC(=O)C2(CCCCOc3ccccc31)CCNCC2 [CBK292074] | 95.2502
O=S1(=O)CCC(Sc2nncc3ccccc23)C1 (stereo not shown) [CBK021586] | 121.625
CCC(c1ccc2c(c1)CCO2)N1CCN(Cc2nc(C)no2)CC1 (stereo not shown) [CBK304237] | 92.8974
CC(Cc1ccccn1)NC(=O)Cn1ccnc1 (stereo not shown) [CBK282069] | 109.047
O=c1[nH]c2ncc(-c3ccncc3)nc2n1CC1CC1 [CBK064539] | 214.442
O=C(c1ccncc1)N1CCc2cc(-c3csc(C4CC4)n3)ccc21 [CBK288618] | 136.629
O=C(c1ccco1)N1CCN(c2ccc(-c3cccc4cccnc34)cn2)CC1 [CBK037640] | 145.757
NC(=O)c1cc(C2CCCN(CC(=O)NCc3cccs3)C2)n[nH]1 (stereo not shown) [CBK305361] | 105.271
CCN1CCN(C(=O)c2cccn2C)CC1 [CBK200248] | 113.211
COc1ccc(O)c(C(=O)c2cnn(C(=O)c3ccc(C)cc3)c2)c1 [CBK297546] | 138.732
Cc1ccc(S(=O)(=O)NC2CCC(C(=O)O)CC2)cc1 (stereo not shown) [CBK286929] | 127.466
CC1=C[C@@H](CNS(=O)(=O)c2ccccc2)[C@H](C(C)C)C[C@H]1CC(=O)N1CCCC1 [CBK289054] | 64.4471
Cc1cc(C)n(CCC(=O)N2CCCCC2C(=O)O)n1 (stereo not shown) [CBK304678] | 112.066
Cc1cc(C)n(CCCn2cncc2-c2ccc3c(c2)CC(C)N3C)n1 (stereo not shown) [CBK281773] | 164.746
CC(C)(C)SCCNC(=S)NCCO [CBK020686] | 107.415
CNC(=O)C1(Cc2ccccc2-c2ccccc2)CCN(C(=O)CCC2CCCC2)CC1 [CBK285696] | 136.337
CCN(CC)CCNC(=O)c1cc(=O)c2ccccc2o1 [CBK010691] | 115.346
CN(C)CCN(C)c1cncc(-c2ccc3ccccc3c2)n1 [CBK037146] | 163.324
O=C(CCCc1ccccc1)Nc1cccnc1N1CCNCC1 [CBK028256T] | 89.6116
